From the supplement of paper PMC9877034
Counter-ions that a name gives are not always drawn. The full ranking holds about 1,000 compounds; the median of “cFRET/donor change relative to DMSO, normalised to beta-lapachone positive control (supercomplex I-IV assembly)” is about 0.18, and the lowest 2% start at about -1. Some of the results follow.

test system: C2C12 (NDUFB8-AcGFP / COX8A-DsRed-Monomer FRET reporter); test: cFRET/donor change relative to DMSO, normalised to beta-lapachone positive control (supercomplex I-IV assembly) (fraction of beta-lapachone effect); higher = more respiratory supercomplex assembly; settings: 40 µM; 24 h
Procedure: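 Cells were treated with 40 uM compound for 24 h and imaged on an IN Cell Analyzer 6000. Corrected FRET was divided by donor signal (cFRET/donor) and measured in two replicate experiments. The score is (mean cFRET/donor of compound - mean DMSO) / (mean beta-lapachone 40 uM - mean DMSO). Compounds flagged for prominent cell death, abnormal morphology or decreased cell number were excluded.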

SMILES	cFRET/donor change
CCc1ccc(/C=C2/SC(=S)NC2=O)cc1	-1.41
C=CCNc1ncnc2ccc(Br)cc12	0.501
C[N+](C)(C)CCOC(N)=O [Carbachol]	-0.216
CCN1C(=O)C=CC1=O [N-Ethylmaleimide]	0.275
O=C1c2c(O)ccc(O)c2C(=O)c2c(NCCNCCO)ccc(NCCNCCO)c21 [Mitoxantrone]	0.111
N[C@@H](Cc1ccc(O)c(O)c1)C(=O)O [L-3,4-Dihydroxyphenylalanine]	-0.183
CCCCc1ncc(/C=C(\Cc2cccs2)C(=O)O)n1Cc1ccc(C(=O)O)cc1 [Eprosartan mesylate]	-0.151
CN1CCN2c3ccccc3Cc3ccccc3C2C1 (configuration not stated) [Mianserin hydrochloride]	0.3
CCN1CCCC1CNC(=O)c1cc(S(N)(=O)=O)ccc1OC (single isomer, unassigned; (-)) [(-)-Sulpiride]	0.312
N[C@@H](COP(=O)(O)O)C(=O)O [O-Phospho-L-serine]	0.129
CCCCc1oc2ccccc2c1C(=O)c1cc(I)c(OCCN(CC)CC)c(I)c1 [Amiodarone hydrochloride]	0.137
COc1ccc(Br)cc1S(=O)(=O)NC(=O)/C=C/c1ccccc1Cc1ccc2ccccc2c1	0.583
CO[C@H]1C[C@@H]2CC[C@@H](C)[C@@](O)(O2)C(=O)C(=O)N2CCCC[C@H]2C(=O)O[C@H]([C@H](C)C[C@@H]2CC[C@@H](OC(=O)C(C)(CO)CO)[C@H](OC)C2)CC(=O)[C@H](C)/C=C(\C)[C@@H](O)[C@@H](OC)C(=O)[C@H](C)C[C@H](C)/C=C/C=C/C=C/1C [Temsirolimus]	-0.55
CC12CC3CC(C)(C1)CC(N)(C3)C2 [Memantine hydrochloride]	0.503
O=C(Nc1ccc([N+](=O)[O-])cc1Cl)c1cc(Cl)ccc1O [Niclosamide]	-0.363
O=C(Nc1cccnc1)N1CCC(Cc2cccc(Oc3ccc(C(F)(F)F)cn3)c2)CC1 [PF 3845 hydrate]	0.494
C#C[C@]1(O)CC[C@H]2[C@@H]3CCC4=Cc5oncc5C[C@]4(C)[C@H]3CC[C@@]21C [Danazol]	0.509
COC(=O)[C@H]1[C@H]2C[C@H]3c4[nH]c5ccccc5c4CCN3C[C@H]2CC[C@@H]1O [Rauwolscine hydrochloride]	0.00542
COC(=O)C(C)(N)Cc1ccc(O)cc1 (racemic) [alpha-Methyl-DL-tyrosine methyl ester hydrochloride]	0.302
CC(C)NCC(O)COc1cccc2[nH]ccc12 (configuration not stated) [Pindolol]	0.485
CC(C)C(=O)c1c(C(C)C)nn2ccccc12 [Ibudilast]	0.498
Nc1ncnc2c1ncn2[C@@H]1O[C@@H]2COP(=O)(O)O[C@H]2[C@H]1O [Adenosine 3',5'-cyclic monophosphate]	-0.0353
Nc1nc(N)c2nc(-c3ccccc3)c(N)nc2n1 [Triamterene]	0.563
CN1[C@@H]2CC[C@H]1C[C@@H](OC(=O)C(O)c1ccccc1)C2 (mixture of isomers) [DL-Homatropine hydrobromide]	0.0655
COc1ccc(CCn2nnnc2C2(c3ccc(C)cc3)CC2)cc1 [Mephetyl tetrazole]	0.388
C=C1C(=O)O[C@H]2[C@H]1CC/C(C)=C/CC[C@@]1(C)O[C@@H]21 [Parthenolide]	0.366

SMILES	cFRET/donor change
O=C1NC(c2cccc([N+](=O)[O-])c2)=CCN1c1ccccc1O [Icilin]	0.561
Nc1ncnc2c1ncn2C1CCCC1 [9-cyclopentyladenine]	0.267
CCCN(CC1CC1)c1nc(C)nc(Nc2c(Cl)cc(Cl)cc2Cl)c1Cl	0.169
CCCCCC(O)CCCC(=O)O (configuration not stated) [5-hydroxydecanoic acid sodium]	0.0238
COc1cc(N)c(Cl)cc1C(=O)OCCN1CCCCC1	0.0941
NC(N)=NC(N)=Nc1ccccc1 [1-Phenylbiguanide]	0.314
NCCc1ccc(O)c(O)c1 [Dopamine hydrochloride]	0.145
C[C@H](CS)C(=O)N1CCC[C@H]1C(=O)O [Captopril]	-0.0367
NC(=O)c1ccccc1 [Benzamide]	0.0222
Cc1c(-c2ccc(-c3ccccc3F)cc2)nc2ccc(F)cc2c1C(=O)O [Brequinar sodium salt hydrate]	0.431
O=c1ccn([C@@H]2O[C@H](COP(=O)(O)OP(=O)(O)O)[C@@H](O)[C@H]2O)c(=O)[nH]1 [Uridine 5'-diphosphate sodium]	0.202
CC(C(O)c1ccc(O)cc1)N1CCC(Cc2ccccc2)CC1 (configuration not stated) [Ifenprodil tartrate]	0.529
O=C(O)C1=CC(=C(c2ccc(O)c(C(=O)O)c2)c2ccc(O)c(C(=O)O)c2)C=CC1=O [Aurintricarboxylic acid]	-0.223
NC(C(=O)O)C(O)C(=O)O (racemic) [DL-threo-beta-hydroxyaspartic acid]	-0.112
Cn1cc(C(F)(F)F)nc1-c1ccc(OCC(O)CNCCOc2ccc(O)c(C(N)=O)c2)cc1 (configuration not stated)	1.13
CCCCCCNC(=O)n1cc(F)c(=O)[nH]c1=O [Carmofur]	0.568
CCCOc1ccccc1-c1nc2[nH]nnc2c(=O)[nH]1 [Zaprinast]	0.225
CC#C[C@]1(O)CC[C@H]2[C@@H]3CCC4=CC(=O)CCC4=C3[C@@H](c3ccc(N(C)C)cc3)C[C@@]21C [Mifepristone]	-0.653
COc1ccc(Cl)cc1C(=O)NCCc1ccc(S(=O)(=O)NC(=O)NC2CCCCC2)cc1 [Glybenclamide]	0.534
CCN(CC)CCOCCOC(=O)C1(c2ccccc2)CCCC1 [Carbetapentane citrate]	0.0628
O=P(O)(O)C(O)(Cn1ccnc1)P(=O)(O)O [Zoledronic acid monohydrate]	0.239
O=C(c1cc(O)c(O)c([N+](=O)[O-])c1)c1ccccc1F	-0.361
Cc1cc(C(C)(C)C)cc(C)c1CC1=NCCN1 [Xylometazoline hydrochloride]	0.077
O=c1[nH]ccc2c(O)cccc12 [1,5-Isoquinolinediol]	0.009
COc1cc2nc(N3CCN(C(=O)C4COc5ccccc5O4)CC3)nc(N)c2cc1OC (configuration not stated) [Doxazosin mesylate]	0.33
N[C@H]1CONC1=O [L-Cycloserine]	0.403

21 structures out of the list, arranged by heavy-atom count, low to high.
SMILES	cFRET/donor change
N[C@H]1CONC1=O [L-Cycloserine]	0.403
NC(=O)c1ccccc1 [Benzamide]	0.0222
C[N+](C)(C)CCOC(N)=O [Carbachol]	-0.216
N[C@@H](COP(=O)(O)O)C(=O)O [O-Phospho-L-serine]	0.129
NC(N)=NC(N)=Nc1ccccc1 [1-Phenylbiguanide]	0.314
N[C@@H](Cc1ccc(O)c(O)c1)C(=O)O [L-3,4-Dihydroxyphenylalanine]	-0.183
C=CCNc1ncnc2ccc(Br)cc12	0.501
O=P(O)(O)C(O)(Cn1ccnc1)P(=O)(O)O [Zoledronic acid monohydrate]	0.239
CC(C)C(=O)c1c(C(C)C)nn2ccccc12 [Ibudilast]	0.498
CC(C)NCC(O)COc1cccc2[nH]ccc12 (configuration not stated) [Pindolol]	0.485
O=C(c1cc(O)c(O)c([N+](=O)[O-])c1)c1ccccc1F	-0.361
O=C(Nc1ccc([N+](=O)[O-])cc1Cl)c1cc(Cl)ccc1O [Niclosamide]	-0.363
CC(C(O)c1ccc(O)cc1)N1CCC(Cc2ccccc2)CC1 (configuration not stated) [Ifenprodil tartrate]	0.529
C#C[C@]1(O)CC[C@H]2[C@@H]3CCC4=Cc5oncc5C[C@]4(C)[C@H]3CC[C@@]21C [Danazol]	0.509
COC(=O)[C@H]1[C@H]2C[C@H]3c4[nH]c5ccccc5c4CCN3C[C@H]2CC[C@@H]1O [Rauwolscine hydrochloride]	0.00542
CCCCc1ncc(/C=C(\Cc2cccs2)C(=O)O)n1Cc1ccc(C(=O)O)cc1 [Eprosartan mesylate]	-0.151
CCCCc1oc2ccccc2c1C(=O)c1cc(I)c(OCCN(CC)CC)c(I)c1 [Amiodarone hydrochloride]	0.137
CC#C[C@]1(O)CC[C@H]2[C@@H]3CCC4=CC(=O)CCC4=C3[C@@H](c3ccc(N(C)C)cc3)C[C@@]21C [Mifepristone]	-0.653
O=C(Nc1cccnc1)N1CCC(Cc2cccc(Oc3ccc(C(F)(F)F)cn3)c2)CC1 [PF 3845 hydrate]	0.494
Cn1cc(C(F)(F)F)nc1-c1ccc(OCC(O)CNCCOc2ccc(O)c(C(N)=O)c2)cc1 (configuration not stated)	1.13
CO[C@H]1C[C@@H]2CC[C@@H](C)[C@@](O)(O2)C(=O)C(=O)N2CCCC[C@H]2C(=O)O[C@H]([C@H](C)C[C@@H]2CC[C@@H](OC(=O)C(C)(CO)CO)[C@H](OC)C2)CC(=O)[C@H](C)/C=C(\C)[C@@H](O)[C@@H](OC)C(=O)[C@H](C)C[C@H](C)/C=C/C=C/C=C/1C [Temsirolimus]	-0.55

The results go on.

SMILES	cFRET/donor change
O=C(CCc1ccncc1)NNC(=O)N1Cc2ccccc2Oc2ccc(Cl)cc21	0.597
Nc1nc2c(cnn2CCc2ccccc2)c2nc(-c3ccco3)nn12	-0.406
Nc1cc2c(ncn2CCOCP(=O)(O)O)c(=O)[nH]1 [PMEG hydrate]	0.0365
COCCNC(=O)COc1ccc(OCCNC[C@H](O)COc2ccccc2)cc1 [ZD 7114 hydrochloride]	0.352
CN[C@H]1CC[C@@H](c2ccc(Cl)c(Cl)c2)c2ccccc21 [Sertraline hydrochloride]	0.829
CC[C@H]1OC(=O)[C@H](C)[C@@H](O[C@H]2C[C@@](C)(OC)[C@@H](O)[C@H](C)O2)[C@H](C)[C@@H](O[C@@H]2O[C@H](C)C[C@H](N(C)C)[C@H]2O)[C@](C)(O)C[C@@H](C)CN(C)[C@H](C)[C@@H](O)[C@]1(C)O [Azithromycin dihydrate]	0.0562
Cc1ccc(-c2cc(C(F)(F)F)nn2-c2ccc(S(N)(=O)=O)cc2)cc1 [Celecoxib]	0.546
CC(C)[N+]1(C)[C@@H]2CC[C@H]1C[C@@H](OC(=O)C(CO)c1ccccc1)C2 (some centres not stated) [Ipratropium bromide]	0.299
c1cc(CN2CCCCC2)cc(OCCCNc2nc3ccccc3s2)c1	0.343
c1ccc2c(c1)CC(N1CCN(c3cccc4c3OCCO4)CC1)C2	0.201
CCN(CC)CCNC(=O)c1ccc(N)cc1 [Procainamide hydrochloride]	0.127
O=C(O)CCC(C(=O)O)N1C(=O)c2ccccc2C1=O [L-Glutamic acid, N-phthaloyl-]	-0.11
CC(=O)Nc1nnc(S(N)(=O)=O)s1 [Acetazolamide]	0.22
Clc1ccc2nsnc2c1NC1=NCCN1 [Tizanidine hydrochloride]	-0.0735
C[C@]12CC[C@@H]3c4ccc(O)cc4C[C@@H](CCCCCCCCC[S+]([O-])CCCC(F)(F)C(F)(F)F)[C@H]3[C@@H]1CC[C@@H]2O (some centres not stated) [Fulvestrant]	0.0846
CCC1(c2ccccc2)C(=O)NCNC1=O [Primidone]	0.0823
COc1cc(Nc2c(C#N)cnc3cc(OCCCN4CCN(C)CC4)c(OC)cc23)c(Cl)cc1Cl [Bosutinib]	0.241
COc1ccccc1N1CCN(CCCNc2c(C)c(=O)n(C)c(=O)n2C)CC1 [Urapidil, 5-Methyl-]	0.0714
C[C@]12CCC(=O)C=C1CC[C@@H]1[C@@H]2CC[C@@]2(C)[C@H]1CC[C@]2(O)C(=O)CO [Cortexolone]	0.123
COC(=O)C1=C(C)NC(C)=C(C(=O)OC(C)(C)CN(C)CCC(c2ccccc2)c2ccccc2)C1c1cccc([N+](=O)[O-])c1 (configuration not stated) [Lercanidipine hydrochloride hemihydrate]	0.109
NC[C@@H]1O[C@H](C23CC4CC(CC(C4)C2)C3)Cc2c1ccc(O)c2O	0.353
CC1CCN(CC[C@H]2CCCN2S(=O)(=O)c2cccc(O)c2)CC1	0.517
CN1CCN(CC(=O)N2c3ccccc3C(=O)Nc3cccnc32)CC1 [Pirenzepine dihydrochloride]	-0.0803
O=C1c2c(O)cc(O)cc2O[C@H](c2ccc(O)c(O)c2)[C@H]1O (racemic) [(±)-Taxifolin]	0.226
CNCCc1cnc(CCC(c2ccccc2)c2ccccc2)[nH]1 [N-Methylhistaprodifen dioxalate salt]	0.364
